What all share (assay): co-IP
In assay [1] the target is FLAG epitope-tagged IPS-1 (WT human IPS-1, pEF-BOS-FLAG-IPS-1) (human) (UniProt Q7Z434).
The target in assay [2] is Myc-IPS-1 (amino acids 201-540), fragment containing the COOH-terminal domain including the TM domain (human) (UniProt Q7Z434).
Assay [3] concerns the target Myc-IPS-1 (amino acids 1-98), fragment containing CARD (human) (UniProt Q7Z434).
Assay [4] addresses Myc-IPS-1 (amino acids 99-200), fragment containing the proline-rich domain (human) (UniProt Q7Z434).

Protein sequences, listed by entry. Tags and fused reporters are not part of them. Lines headed by an entry give the natural chain unless they say otherwise; changes in a name come on top. Residues count along the entry.
UniProt Q7Z434: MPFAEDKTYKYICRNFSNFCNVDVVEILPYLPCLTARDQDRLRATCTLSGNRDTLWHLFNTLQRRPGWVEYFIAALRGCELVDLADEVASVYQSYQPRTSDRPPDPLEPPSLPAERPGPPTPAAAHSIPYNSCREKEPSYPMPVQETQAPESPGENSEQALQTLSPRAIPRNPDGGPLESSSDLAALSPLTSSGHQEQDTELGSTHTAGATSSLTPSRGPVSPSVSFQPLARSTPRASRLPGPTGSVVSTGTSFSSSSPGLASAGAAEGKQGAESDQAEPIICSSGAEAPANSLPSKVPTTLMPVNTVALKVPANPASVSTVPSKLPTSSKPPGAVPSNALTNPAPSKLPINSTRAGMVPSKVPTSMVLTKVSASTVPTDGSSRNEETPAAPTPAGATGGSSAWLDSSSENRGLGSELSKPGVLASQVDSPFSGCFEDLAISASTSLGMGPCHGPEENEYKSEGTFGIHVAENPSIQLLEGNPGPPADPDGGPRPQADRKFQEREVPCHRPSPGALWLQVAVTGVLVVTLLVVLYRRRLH
Myc-IPS-1 (amino acids 1-98), fragment containing CARD: residues 1-98 of Q7Z434
Myc-IPS-1 (amino acids 99-200), fragment containing the proline-rich domain: residues 99-200 of Q7Z434
Myc-IPS-1 (amino acids 201-540), fragment containing the COOH-terminal domain including the TM domain: residues 201-540 of Q7Z434
UniProt Q9CQF3: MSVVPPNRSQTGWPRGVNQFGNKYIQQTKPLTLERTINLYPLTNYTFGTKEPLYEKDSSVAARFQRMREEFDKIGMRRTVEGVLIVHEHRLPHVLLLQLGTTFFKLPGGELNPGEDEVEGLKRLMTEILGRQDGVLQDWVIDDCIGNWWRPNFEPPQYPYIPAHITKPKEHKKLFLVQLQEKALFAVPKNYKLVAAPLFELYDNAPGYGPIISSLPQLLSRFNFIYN

Results are given in words; binding and its absence hold for the method and conditions named. Binding seen in cells or lysates may run through a third protein. Some entries that bind do so weakly or less than the wild type.

Turning to “Myc epitope-tagged NUDT21 (from UniProt Q9CQF3 1-227)”, in assay [1], the binding result is listed as “binds”.

Regarding “hemagglutinin epitope (HA)-tagged NUDT21 (from UniProt Q9CQF3 1-227)”, the values for the binding entry in assay [2], in assay [3] and in assay [4] were “no binding”, “binds” and “binds”, respectively.

The values are drawn from doi:10.1101/2020.04.09.033597.
